Results published in PubChem BioAssay AID1487 (National Center for Advancing Translational Sciences (NCATS), 2009).
The list shows a part of the results. The main result of the screen is listed elsewhere. These columns were measured beside it and carry no call. Most of these compounds were active or inconclusive in the main read-out, so they are no random draw. Words in brackets tell the shape of the fitted curve; partial curves, single points and poor fits give uncertain potencies.

Assay: qHTS Assay for Modulators of Lamin A Splicing
Settings: HeLa LMNA splicing GFP/RFP minigene ratio, 48 h
In short: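 S3 HeLa stable clones carrying a lamin A-EGFP splicing minigene plus DsRed2 were seeded at 600 cells/well in Opti-MEM with 2% FBS, pin-dosed and incubated 48 h at 37°C. Acumen cytometry (488 nm) gave the GFP/RFP total-intensity ratio.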

[1] = measured here: GFP splicing reporter channel
[2] = measured here: RFP viability control channel

Row | Structure (SMILES) | AC50 [1] | AC50 [2]
1 | COc1ccc(Nc2nc(C)nc3c2nnn3Cc2ccccc2)cc1OC | 7.08 µM [rising, partial curve, poor fit] | 14.1 µM [rising, partial curve]
2 | Cc1cc(C)n(-c2nnc(NC34CC5CC(CC(C5)C3)C4)nn2)n1 | 35.5 µM [rising, single point] | 
3 | CC(=O)N(C)c1ccc(NC(=O)Nc2ccccc2C)cc1 | 1.78 µM [falling, full curve, poor fit] | 
4 | COc1ccc(C2C(C(=O)Nc3ccccc3OC)=C(C)Nc3c(C(=O)Nc4ccccc4)cnn32)c(OC)c1 (stereo not drawn) |  | 0.0224 µM [falling, full curve, poor fit]
5 | O=C(Nc1ccc(Cl)cc1)/C(=C/c1cccc(O)c1)c1nc2ccccc2s1 |  | 3.55 µM [rising, partial curve]
6 | COC(=O)c1c(Oc2nc(OC)cc(OC)n2)cccc1Oc1nc(OC)cc(OC)n1 | 20 µM [rising, partial curve, poor fit] | 
7 | COc1cn(CC(=O)Nc2ccccc2)c(CN2CCCCC2)cc1=O | 0.0224 µM [rising, full curve] | 0.01 µM [rising, full curve, poor fit]
8 | Cc1ccc(NS(=O)(=O)c2ccc(OCC(=O)NCc3ccncc3)cc2)cc1 |  | 15.8 µM [rising, partial curve, poor fit]
9 | COc1ccc(/C=N/Nc2nc3ccccc3s2)cc1O | 22.4 µM [falling, single point] | 
10 | Cc1nc2sc(-c3ccccc3)cc2c(=O)n1-n1cccc1 | 35.5 µM [rising, single point] | 35.5 µM [rising, single point]
11 | COc1ccc(CCNC(=O)Cn2c(=O)c3cccn3c3ccc(F)cc32)c(OC)c1 |  | 0.00398 µM [falling, full curve, poor fit]
12 | O=C1/C(=C/c2cccc3ccccc23)CCCc2ccccc21 |  | 35.5 µM [rising, single point]
13 | Cc1ccc(C)c(-c2nnc(NC(=O)c3ccc4c(c3)OCCO4)o2)c1 |  | 2.51 µM [rising, partial curve, poor fit]
14 | CC(=O)Nc1ccc(S(=O)(=O)Nc2cccn(Cc3ccc(C)cc3)c2=O)cc1 |  | 12.6 µM [falling, partial curve]
15 | COc1cccc(C(=O)Nc2ccc(-n3nncc3-c3ccccc3)cc2)c1 | 35.5 µM [falling, partial curve, poor fit] | 35.5 µM [falling, partial curve]
16 | Cc1oc2ncn(CC(C)C)c(=O)c2c1C(=O)NCCCN1CCC(C)CC1 |  | 0.0141 µM [falling, full curve]
17 | Cc1cc(=S)cc(C)n1CCO | 14.1 µM [rising, single point] | 15.8 µM [rising, single point]
18 | CS(=O)(=O)N(CC(=O)Nc1ccc(S(=O)(=O)N2CCCC2)cc1)c1ccccc1 | 0.316 µM [falling, full curve, poor fit] | 0.501 µM [falling, partial curve]
19 | Cc1ccc(NC(=S)NNC(=O)c2nnn(-c3ccccc3)c2C)cc1 | 10 µM [rising, partial curve] | 7.94 µM [rising, partial curve, poor fit]
20 | COc1ccc(-c2cc(C(=O)Nc3sc4c(c3C#N)CCCC4)c3ccccc3n2)cc1 |  | 12.6 µM [rising, partial curve]
21 | COc1cc2c(cc1NC(=O)COC(=O)[C@@H](NS(=O)(=O)c1cccc(Cl)c1)C(C)C)oc1ccccc12 | 10 µM [rising, partial curve, poor fit] | 12.6 µM [rising, partial curve, poor fit]
22 | CN(C)c1ccc(-c2nc(NC3CCNCC3)c3ccccc3n2)cc1 | 35.5 µM [falling, single point] | 35.5 µM [falling, single point]
23 | CCOC(=O)n1c(=O)oc2cc(S(=O)(=O)N3CCCCC3)ccc21 |  | 17.8 µM [rising, single point]
24 | O=c1[nH]nc(CNc2ccc(Cl)cc2Cl)c2ccccc12 |  | 0.316 µM [falling, partial curve, poor fit]
25 | C=CCc1cccc(C=Nc2cc(Br)ccc2O)c1O |  | 1.41 µM [rising, partial curve]
26 | NC(=O)[C@@H]1CCCN1Cc1nc(-c2cccs2)no1 |  | 0.0708 µM [falling, full curve, poor fit]
27 | O=C1CCCc2cc(S(=O)(=O)NCC3CCC(C(=O)NCc4ccccc4Cl)CC3)ccc2N1 (stereo not drawn) | 0.01 µM [falling, full curve, poor fit] | 0.00501 µM [falling, full curve, poor fit]

An excerpt taken from the entries so far:
Row | Structure (SMILES) | AC50 [1] | AC50 [2]
5 | O=C(Nc1ccc(Cl)cc1)/C(=C/c1cccc(O)c1)c1nc2ccccc2s1 |  | 3.55 µM [rising, partial curve]
6 | COC(=O)c1c(Oc2nc(OC)cc(OC)n2)cccc1Oc1nc(OC)cc(OC)n1 | 20 µM [rising, partial curve, poor fit] | 
7 | COc1cn(CC(=O)Nc2ccccc2)c(CN2CCCCC2)cc1=O | 0.0224 µM [rising, full curve] | 0.01 µM [rising, full curve, poor fit]

Further records follow.

Row | Structure (SMILES) | AC50 [1] | AC50 [2]
28 | COc1ccccc1N1CCN(C(=O)c2c(C)oc3ncn(CC(C)C)c(=O)c23)CC1 | 3.98 µM [rising, partial curve, poor fit] | 5.01 µM [rising, single point]
29 | Cn1c(NC(=O)/C=C/c2ccc(Cl)c(Cl)c2)cc(=O)n(C)c1=O | 15.8 µM [rising, partial curve, poor fit] | 10 µM [rising, partial curve, poor fit]
30 | CCN(CC)S(=O)(=O)c1cccc(C(=O)Nc2cc3oc4ccccc4c3cc2OC)c1 |  | 5.62 µM [rising, single point]
31 | Cc1ccc2cc(C#N)c(N3CCCN(C(=O)C4CCCO4)CC3)nc2c1C (stereo not drawn) | 14.1 µM [rising, single point] | 17.8 µM [rising, single point]
32 | Cc1ccc2cccc(Oc3ccc([N+](=O)[O-])cc3[N+](=O)[O-])c2n1 | 15.8 µM [rising, partial curve, poor fit] | 
33 | COc1cc(C2C(=O)N(C3CCCCC3)CC(=O)N2CCC2=CCCCC2)ccc1OC(C)C (stereo not drawn) |  | 0.251 µM [falling, full curve, poor fit]
34 | CC(C)N(C(=O)Cc1ccccc1[N+](=O)[O-])C(C)C | 3.16 µM [rising, full curve, poor fit] | 
35 | O=C(CCCNS(=O)(=O)c1cccs1)N1CCN(c2cccc(Cl)c2)CC1 | 35.5 µM [rising, single point] | 35.5 µM [rising, single point]
36 | Cc1ccnc(NS(=O)(=O)c2ccc(NC(=O)Cc3ccccc3)cc2)n1 |  | 0.355 µM [rising, partial curve, poor fit]
37 | Cc1ccccc1NCC(=O)N/N=C/C(Br)=C/c1ccccc1 |  | 6.31 µM [rising, partial curve]
38 | Cc1cccc(CSc2ccc3nnc(-c4ccccn4)n3n2)c1 |  | 0.0224 µM [rising, full curve]
39 | COc1cc(N/N=C(\C)c2ccc(O)c(C)c2)nc(-c2ccccc2)n1 | 12.6 µM [falling, partial curve] | 7.94 µM [falling, partial curve]
40 | Cc1cccc(Nc2nnc(SCC(=O)Nc3cccc(S(=O)(=O)N4CCCCC4)c3)s2)c1 |  | 25.1 µM [rising, single point]
41 | O=C(O)c1cccc(N=NN2CCOCC2)c1 | 5.62 µM [falling, partial curve] | 17.8 µM [falling, partial curve, poor fit]
42 | CCOC(=O)c1c(-c2ccc(-c3ccccc3)cc2)csc1NC(=O)CCN1CCOCC1 |  | 15.8 µM [rising, single point]
43 | Cc1cc(C)cc(NC(=O)C2CCN(S(=O)(=O)c3cccc(-c4noc(C)n4)c3)CC2)c1 | 7.94 µM [falling, partial curve] | 2 µM [falling, partial curve]
44 | Cc1ccc(CNC(=O)CCCN2C(=O)COc3ccc(C)cc32)cc1 | 5.62 µM [rising, single point] | 
45 | Cc1cccc(NC(=O)C(=O)NCCc2csc(-c3ccc(C(F)(F)F)cc3)n2)c1C |  | 0.316 µM [falling, full curve]
46 | COC(=O)c1ccncc1C(=O)Nc1ccc(OC)cc1 |  | 0.00501 µM [falling, full curve, poor fit]
47 | CC(C)C(C(=O)O)N1C(=O)/C(=C/C=C/c2ccco2)SC1=S (stereo not drawn) | 14.1 µM [rising, single point] | 
48 | CN1c2ccccc2C(C)(C)C12CC(c1cccc(S(=O)(=O)N3CCCC3)c1)=NO2 (stereo not drawn) | 1.78 µM [rising, single point] | 2.24 µM [rising, partial curve]
49 | CCCCCCCC1=Cc2ccccc2C(C(C(=O)OC)C(=O)OC)N1C(=O)OC (stereo not drawn) | 0.00282 µM [falling, full curve, poor fit] | 0.00316 µM [falling, full curve, poor fit]
50 | COc1ccc(/C=N/Nc2nc(N3CCCCC3)nc(N3CCCCC3)n2)cc1[N+](=O)[O-] | 0.631 µM [rising, full curve, poor fit] | 0.708 µM [rising, full curve]
51 | COc1cc(C(=O)N2CCCc3ccccc32)cc(OC)c1OC |  | 22.4 µM [rising, single point]
52 | CCOC(=O)C1(CCc2ccccc2)CCN(Cc2cnc(N(C)C)s2)CC1 | 35.5 µM [falling, single point] | 
53 | O=C(NC1CC(=O)N(c2ccc(Cl)cc2)C1)c1ccc(S(=O)(=O)N2CCOCC2)cc1 (stereo not drawn) | 0.355 µM [falling, full curve, poor fit] | 
